What was measured:
BRCA-1 = target: T1, BRCA-1 (UniProt P38398 1-1863, limits assumed); assay: co-immunoprecipitation (data not shown)
T1 construct: Specificity control

The chains behind the UniProt entries cited, without tags or fusion partners.
UniProt P38398, whole entry: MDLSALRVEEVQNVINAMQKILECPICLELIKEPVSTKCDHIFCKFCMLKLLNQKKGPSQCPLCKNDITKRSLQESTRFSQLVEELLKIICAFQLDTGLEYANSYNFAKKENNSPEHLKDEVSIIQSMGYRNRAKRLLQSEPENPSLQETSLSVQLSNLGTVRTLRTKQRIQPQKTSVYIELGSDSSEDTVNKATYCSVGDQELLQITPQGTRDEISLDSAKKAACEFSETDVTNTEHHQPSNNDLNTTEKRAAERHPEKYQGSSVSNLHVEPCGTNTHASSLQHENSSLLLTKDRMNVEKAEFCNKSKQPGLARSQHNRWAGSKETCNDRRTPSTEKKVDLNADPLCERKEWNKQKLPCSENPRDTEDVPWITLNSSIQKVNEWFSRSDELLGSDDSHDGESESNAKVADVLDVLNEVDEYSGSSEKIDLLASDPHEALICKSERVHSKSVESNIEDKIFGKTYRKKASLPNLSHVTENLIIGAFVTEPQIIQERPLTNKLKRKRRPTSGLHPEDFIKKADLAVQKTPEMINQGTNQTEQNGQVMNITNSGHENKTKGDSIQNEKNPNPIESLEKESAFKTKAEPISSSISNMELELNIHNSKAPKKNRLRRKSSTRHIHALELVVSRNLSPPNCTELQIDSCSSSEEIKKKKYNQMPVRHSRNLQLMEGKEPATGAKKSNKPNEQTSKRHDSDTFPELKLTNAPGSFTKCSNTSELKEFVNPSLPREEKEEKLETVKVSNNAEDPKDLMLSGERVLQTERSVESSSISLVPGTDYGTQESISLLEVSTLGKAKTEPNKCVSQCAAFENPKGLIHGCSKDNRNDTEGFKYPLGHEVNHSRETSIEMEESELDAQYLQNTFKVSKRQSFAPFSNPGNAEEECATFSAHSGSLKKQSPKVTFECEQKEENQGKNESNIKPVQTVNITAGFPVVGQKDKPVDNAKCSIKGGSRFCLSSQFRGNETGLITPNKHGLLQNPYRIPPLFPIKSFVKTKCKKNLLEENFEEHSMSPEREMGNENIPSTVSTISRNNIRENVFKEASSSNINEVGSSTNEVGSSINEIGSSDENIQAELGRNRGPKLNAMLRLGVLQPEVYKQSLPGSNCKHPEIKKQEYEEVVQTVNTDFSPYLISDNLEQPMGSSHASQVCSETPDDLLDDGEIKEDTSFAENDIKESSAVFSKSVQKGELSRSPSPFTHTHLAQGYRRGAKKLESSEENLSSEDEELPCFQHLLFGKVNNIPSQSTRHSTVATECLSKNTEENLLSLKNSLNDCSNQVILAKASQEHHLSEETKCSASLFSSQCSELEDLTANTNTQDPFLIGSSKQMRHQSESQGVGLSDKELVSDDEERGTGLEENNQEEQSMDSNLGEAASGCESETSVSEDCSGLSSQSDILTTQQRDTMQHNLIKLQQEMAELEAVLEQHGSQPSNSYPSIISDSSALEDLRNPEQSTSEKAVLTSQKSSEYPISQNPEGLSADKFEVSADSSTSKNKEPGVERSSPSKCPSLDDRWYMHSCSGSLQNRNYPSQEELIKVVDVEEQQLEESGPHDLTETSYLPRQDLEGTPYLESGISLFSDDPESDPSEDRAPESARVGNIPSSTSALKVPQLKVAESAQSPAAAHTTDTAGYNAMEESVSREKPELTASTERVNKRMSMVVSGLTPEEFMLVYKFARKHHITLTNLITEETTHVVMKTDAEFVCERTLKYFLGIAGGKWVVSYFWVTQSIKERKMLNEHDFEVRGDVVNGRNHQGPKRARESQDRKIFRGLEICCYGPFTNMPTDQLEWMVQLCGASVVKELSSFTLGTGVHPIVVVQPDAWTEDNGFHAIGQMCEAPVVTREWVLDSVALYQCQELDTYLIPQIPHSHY

E2F1 = target: T2, E2F1 (UniProt Q01094 1-437, limits assumed); assay: co-immunoprecipitation (data not shown)
T2 construct: Specificity control
T2 sequence (looked up): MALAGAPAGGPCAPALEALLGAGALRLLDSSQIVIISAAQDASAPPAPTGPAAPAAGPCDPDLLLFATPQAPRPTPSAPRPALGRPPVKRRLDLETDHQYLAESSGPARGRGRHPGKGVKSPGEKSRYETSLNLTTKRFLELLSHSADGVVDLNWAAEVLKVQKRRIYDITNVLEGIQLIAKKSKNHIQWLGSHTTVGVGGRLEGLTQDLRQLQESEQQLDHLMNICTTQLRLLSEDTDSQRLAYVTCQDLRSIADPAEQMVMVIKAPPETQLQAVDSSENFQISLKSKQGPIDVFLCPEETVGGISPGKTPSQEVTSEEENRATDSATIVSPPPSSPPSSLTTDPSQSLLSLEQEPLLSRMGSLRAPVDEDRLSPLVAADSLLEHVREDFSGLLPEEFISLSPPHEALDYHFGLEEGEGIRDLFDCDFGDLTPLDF

B1: HOXB7 (construct not stated) (other, UniProt P09629 1-217, looked up)
chain: MSSLYYANTLFSKYPASSSVFATGAFPEQTSCAFASNPQRPGYGAGSGASFAASMQGLYPGGGGMAGQSAAGVYAAGYGLEPSSFNMHCAPFEQNLSGVCPGDSAKAAGAKEQRDSDLAAESNFRIYPWMRSSGTDRKRGRQTYTRYQTLELEKEFHYNRYLTRRRRIEIAHTLCLTERQIKIWFQNRRMKWKKENKTAGPGTTGQDRAEAEEEEEE
notes: also called HOXB7 immunocomplexes
- binding result (BRCA-1): no binding
- binding result (E2F1): no binding
